Test results taken from PMC9268489.
These are yes or no findings as the source states them, for the method shown. Binding seen in cells or lysates may run through a third protein. Binding calls can cover weak binding; strength is not graded here.

Molecular target: T1, G-protein-coupled estrogen receptor (GPER1), mouse gastric smooth muscle (mouse (endogenous in gastric smooth muscle)) (UniProt Q8BMP4)
T1 sequence: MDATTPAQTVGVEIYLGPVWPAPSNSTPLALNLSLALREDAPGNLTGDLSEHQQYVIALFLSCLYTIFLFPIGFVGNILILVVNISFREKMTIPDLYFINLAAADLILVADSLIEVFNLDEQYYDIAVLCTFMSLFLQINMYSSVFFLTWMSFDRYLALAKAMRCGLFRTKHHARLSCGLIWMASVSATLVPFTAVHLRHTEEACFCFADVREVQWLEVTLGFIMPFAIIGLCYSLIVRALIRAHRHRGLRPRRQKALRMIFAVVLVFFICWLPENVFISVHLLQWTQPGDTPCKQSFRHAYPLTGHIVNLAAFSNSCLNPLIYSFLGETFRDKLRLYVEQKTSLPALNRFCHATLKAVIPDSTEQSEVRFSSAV
Assay: co-IP; mouse gastric smooth muscle (MGSM) lysate (Triton X-100-based lysis buffer), GPER1 antibody, protein A/G agarose, immunoblot

binding: binds
Substance: angiotensin II type 1 receptor (AT1R), mouse gastric smooth muscle
